Assay results published in paper PMC4402694.
These are yes or no findings as the source states them, for the method shown. For some assays here: In cells and extracts the contact can be indirect. For some assays here: Where a sequence is shown, tags or fusion partners need not be part of it. Some results given as binding are weak or reduced against the parent protein; the word gives no strength.

Key:
[1] = target: T1, Enp1-TAP (yeast (S. cerevisiae)) (UniProt P38333); test: tandem affinity purification (TAP) with Western blot; Enp1-TAP isolated by TAP from SLX9 or slx9-1 yeast cells; calmodulin eluates on 4-12% gradient gel, silver staining or Western
T1 sequence: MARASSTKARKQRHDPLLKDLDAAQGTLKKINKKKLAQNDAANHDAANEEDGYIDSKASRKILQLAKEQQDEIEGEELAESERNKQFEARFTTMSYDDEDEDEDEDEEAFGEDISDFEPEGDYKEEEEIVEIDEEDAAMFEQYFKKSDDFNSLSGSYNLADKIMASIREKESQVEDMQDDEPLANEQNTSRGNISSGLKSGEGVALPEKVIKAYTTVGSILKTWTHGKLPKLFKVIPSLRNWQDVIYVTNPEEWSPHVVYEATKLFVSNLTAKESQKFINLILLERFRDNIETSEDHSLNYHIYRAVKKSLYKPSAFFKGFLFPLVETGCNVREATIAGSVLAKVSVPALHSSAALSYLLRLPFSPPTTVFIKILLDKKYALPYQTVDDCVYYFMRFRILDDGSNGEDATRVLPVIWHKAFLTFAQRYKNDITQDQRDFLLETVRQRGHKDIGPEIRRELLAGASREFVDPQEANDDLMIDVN

[2] = target: T2, GST-Ltv1 (yeast (S. cerevisiae)), P34078; test: pull-down; GST fusion immobilised on GSH-Sepharose in PBSKMT, incubated with one purified protein (2 µM His6-Ran variant, or 0.5 µM Slx9 or Slx9-1) for 1 hr at 4°C, competing E. coli lysates present; Coomassie or Western; both purified; conditions: remark: other sources report otherwise
T2 chain: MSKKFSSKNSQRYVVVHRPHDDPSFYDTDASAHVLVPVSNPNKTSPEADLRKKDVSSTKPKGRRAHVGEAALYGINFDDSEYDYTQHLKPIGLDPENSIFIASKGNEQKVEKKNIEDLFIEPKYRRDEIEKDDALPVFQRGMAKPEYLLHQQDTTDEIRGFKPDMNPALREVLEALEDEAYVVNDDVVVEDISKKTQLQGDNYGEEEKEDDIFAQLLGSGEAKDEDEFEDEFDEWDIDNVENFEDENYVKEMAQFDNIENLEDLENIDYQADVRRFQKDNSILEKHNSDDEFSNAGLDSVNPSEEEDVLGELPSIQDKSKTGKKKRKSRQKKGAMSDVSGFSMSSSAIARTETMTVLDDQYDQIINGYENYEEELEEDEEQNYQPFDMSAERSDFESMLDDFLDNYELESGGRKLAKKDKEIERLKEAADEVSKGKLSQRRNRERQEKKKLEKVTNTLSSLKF

[3] = target: T3, GST-Slx9 (yeast (S. cerevisiae)) (UniProt P53251); test: pull-down; GST-Slx9 immobilised on GSH-Sepharose, incubated with lysate containing His6-Nmd3 or His6-Rio2; Western; only the target purified
T3 sequence: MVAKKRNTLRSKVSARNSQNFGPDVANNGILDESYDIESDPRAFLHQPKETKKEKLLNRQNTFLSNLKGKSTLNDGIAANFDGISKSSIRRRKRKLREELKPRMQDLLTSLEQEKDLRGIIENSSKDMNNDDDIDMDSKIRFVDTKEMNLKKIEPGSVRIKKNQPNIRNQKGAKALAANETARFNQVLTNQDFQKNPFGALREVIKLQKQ

B1: Slx9 (in SLX9 yeast cells) (protein, UniProt P53251 1-210)
chain: MVAKKRNTLRSKVSARNSQNFGPDVANNGILDESYDIESDPRAFLHQPKETKKEKLLNRQNTFLSNLKGKSTLNDGIAANFDGISKSSIRRRKRKLREELKPRMQDLLTSLEQEKDLRGIIENSSKDMNNDDDIDMDSKIRFVDTKEMNLKKIEPGSVRIKKNQPNIRNQKGAKALAANETARFNQVLTNQDFQKNPFGALREVIKLQKQ
binding [1]: binds

B2: Slx9-1 (in slx9-1 yeast cells) (protein, UniProt P53251 1-210)
chain: MVAKKRNTLRSKVSARNSQNFGPDVANNGILDESYDIESDPRAFLHQPKETKKEKLLNRQNTFLSNLKGKSTLNDGIAANFDGISKSSIRRRKRKLREELKPRMQDLPTSLEQEKDLRGIIENSSKDMNNDDDIDMDSKIRFVDTKEMNLKKIEPGSVRIKKNQPNIRNQKGAKALAANETARFNQVLTNQDFQKNPFGALREVIKLQKQ
binding [1]: binds

B3: Ltv1 (endogenous) (protein, UniProt P34078 1-463)
chain: MSKKFSSKNSQRYVVVHRPHDDPSFYDTDASAHVLVPVSNPNKTSPEADLRKKDVSSTKPKGRRAHVGEAALYGINFDDSEYDYTQHLKPIGLDPENSIFIASKGNEQKVEKKNIEDLFIEPKYRRDEIEKDDALPVFQRGMAKPEYLLHQQDTTDEIRGFKPDMNPALREVLEALEDEAYVVNDDVVVEDISKKTQLQGDNYGEEEKEDDIFAQLLGSGEAKDEDEFEDEFDEWDIDNVENFEDENYVKEMAQFDNIENLEDLENIDYQADVRRFQKDNSILEKHNSDDEFSNAGLDSVNPSEEEDVLGELPSIQDKSKTGKKKRKSRQKKGAMSDVSGFSMSSSAIARTETMTVLDDQYDQIINGYENYEEELEEDEEQNYQPFDMSAERSDFESMLDDFLDNYELESGGRKLAKKDKEIERLKEAADEVSKGKLSQRRNRERQEKKKLEKVTNTLSSLKF
binding [1]: binds

B4: Slx9 (purified, GB1-His removed), P53251 1-210 (protein)
chain: MVAKKRNTLRSKVSARNSQNFGPDVANNGILDESYDIESDPRAFLHQPKETKKEKLLNRQNTFLSNLKGKSTLNDGIAANFDGISKSSIRRRKRKLREELKPRMQDLLTSLEQEKDLRGIIENSSKDMNNDDDIDMDSKIRFVDTKEMNLKKIEPGSVRIKKNQPNIRNQKGAKALAANETARFNQVLTNQDFQKNPFGALREVIKLQKQ
binding [2]: no binding (tested: 0.5 µM)

B5: His6-Nmd3 (protein, UniProt P38861 1-518)
chain: MEFTPIDPHQHQNAATLLCCNCGTPIDGSTGLVMCYDCIKLTVDITQGIPREANISFCRNCERFLQPPGQWIRAELESRELLAICLRRLKGLTKVRLVDASFIWTEPHSRRIRIKLTVQGEAMTNTIIQQTFEVEYIVIAMQCPDCARSYTTNTWRATVQIRQKVPHKRTFLFLEQLILKHNAHVDTISISEAKDGLDFFYAQKNHAVKMIDFLNAVVPIKHKKSEELISQDTHTGASTYKFSYSVEIVPICKDDLVVLPKKLAKSMGNISQFVLCSKISNTVQFMDPTTLQTADLSPSVYWRAPFNALADVTQLVEFIVLDVDSTGISRGNRVLADITVARTSDLGVNDQVYYVRSHLGGICHAGDSVMGYFIANSNYNSDLFDGLNIDYVPDVVLVKKLYQRKSKKSRHWKLKRMAKEHKDIDASLDYNSRAQKQEMERAEKDYELFLQELEEDAELRQSVNLYKNREANVPPEEHEMDEDEDEDAPQINIDELLDELDEMTLEDGVENTPVESQQ
binding [3]: no binding
